Source: the supplement of paper PMC4604168 (melanoma cell lines)
Some of the results follow. Many values rest on one well or one pass, so single values are uncertain.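 Cells were imaged in 1,536-well plates, and nuclei stained with an antibody against cleaved PARP were counted against all DNA-stained nuclei to give the apoptosis fraction. Screening doses were chosen to leave most cells alive, and resting and induced cleaved-PARP levels differ strongly between cell lines.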

Key:
Assay in all cases: cleaved PARP positive nuclei fraction relative to DMSO control; melanoma cells; higher = more apoptosis
Conditions in all cases: library dose: low library concentration; 72 h
MZ2-MEL = system: MZ2-MEL
MeWo = system: MeWo
RPMI7951 = system: RPMI7951
RVH-421 = system: RVH-421
SkMel28 = system: SkMel28
SkMel30 = system: SkMel30
SkMel5 = system: SkMel5
UACC257 = system: UACC257
UACC62 = system: UACC62

SMILES	cleaved PARP positive nuclei fraction (MZ2-MEL) [%]	cleaved PARP positive nuclei fraction (MeWo) [%]	cleaved PARP positive nuclei fraction (RPMI7951) [%]	cleaved PARP positive nuclei fraction (RVH-421) [%]	cleaved PARP positive nuclei fraction (SkMel28) [%]	cleaved PARP positive nuclei fraction (SkMel30) [%]	cleaved PARP positive nuclei fraction (SkMel5) [%]	cleaved PARP positive nuclei fraction (UACC257) [%]	cleaved PARP positive nuclei fraction (UACC62) [%]
Cc1cc(SCc2sc(-c3ccc(C(F)(F)F)c(F)c3)nc2C)ccc1OCC(=O)O + Cc1cc([N+](=O)[O-])ccc1NS(=O)(=O)c1cc(Cl)ccc1Cl [FH535] (first compound 2 µM, partner dose 1 µM)	121	48.9	118	86.9	99.7	53.2	20.2	52.4	37.7
Cc1cc(SCc2sc(-c3ccc(C(F)(F)F)c(F)c3)nc2C)ccc1OCC(=O)O + CCCCCCCCCCCC1=C(O)C(=O)C=C(O)C1=O [Embelin] (first compound 2 µM, partner dose 1.2 µM)	130	65.6	87.7	25.5	71.6	36.4	55.3	102	145
C/C(O)=C(\C#N)C(=O)Nc1cc(Br)ccc1Br + COc1cc(N2CCC(N3CCN(C)CC3)CC2)ccc1Nc1ncc(Cl)c(Nc2ccccc2S(=O)(=O)C(C)C)n1 [NVP-TAE684] (first compound 2 µM, partner dose 0.08 µM)	60.6	166	106	58.7	176	18.3	40.2	118	102
C[C@]12O[C@H](C[C@]1(O)CO)n1c3ccccc3c3c4c(c5c6ccccc6n2c5c31)CNC4=O [Lestaurtinib] + NC(=O)Nc1cc(-c2cccc(F)c2)sc1C(=O)N[C@H]1CCCNC1 [AZD7762] (first compound 0.004 µM, partner dose 0.02 µM)	63.8	78.4	34	107	51.4	100	60.4	106	93.1
CO[C@@H]1[C@H](N(C)C(=O)c2ccccc2)C[C@H]2O[C@]1(C)n1c3ccccc3c3c4c(c5c6ccccc6n2c5c31)C(=O)NC4 [Midostaurin] + O=C(Oc1ccc([N+](=O)[O-])cc1)N1CCC(C(O)(c2ccc3c(c2)OCO3)c2ccc3c(c2)OCO3)CC1 [JZL184] (first compound 0.08 µM, partner dose 1 µM)	99.3	79.3	39.4	78.4	98.7	19.1	106	110	137
C[C@]12O[C@H](C[C@]1(O)CO)n1c3ccccc3c3c4c(c5c6ccccc6n2c5c31)CNC4=O [Lestaurtinib] + O=C(O)c1ccc(-c2c[nH]c3ncc(-c4ccccc4)cc23)cc1C1CCCC1 [GSK650394] (first compound 0.004 µM, partner dose 0.16 µM)	112	109	57.2	129	184	70.6	44.2	63.8	120
CCc1ccc(CCOc2ccc(CC3SC(=O)NC3=O)cc2)nc1 (stereo not drawn) [pioglitazone] + O=C(Oc1ccc([N+](=O)[O-])cc1)N1CCC(C(O)(c2ccc3c(c2)OCO3)c2ccc3c(c2)OCO3)CC1 [JZL184] (first compound 2 µM, partner dose 1 µM)	73.4	51.8	83	71.4	65.7	323	40.6	70.3	34.2
C[C@]12O[C@H](C[C@]1(O)CO)n1c3ccccc3c3c4c(c5c6ccccc6n2c5c31)CNC4=O [Lestaurtinib] + CO[C@@H]1[C@H](N(C)C(=O)c2ccccc2)C[C@H]2O[C@]1(C)n1c3ccccc3c3c4c(c5c6ccccc6n2c5c31)C(=O)NC4 [Midostaurin] (first compound 0.004 µM, partner dose 0.08 µM)	221	99.6	90.7	92.6	67.1	69.2	120	131	97.2
C[As](C)SC[C@H](NC(=O)CC[C@H](N)C(=O)O)C(=O)NCC(=O)O [Darinaparsin] + COc1ccc2c(c1)CCC1C2CCC2(C)C(NCCCCCCN3C(=O)C=CC3=O)CCC12 [U73122] (first compound 0.4 µM, partner dose 0.4 µM)	106	206	72.6	69.5	52.4	49.5	62.1	99.8	44
C/C(O)=C(\C#N)C(=O)Nc1cc(Br)ccc1Br + Oc1nc(-c2ccc(C(F)(F)F)cc2)nc2c1CSCC2 [XAV939] (first compound 2 µM, partner dose 2 µM)	100	54.1	92.5	60.6	81.8	38	37.6	124	41.9
Nc1cccc2c1CN(C1CCC(=O)NC1=O)C2=O (stereo not drawn) [lenalidomide] + O=C(Oc1ccc([N+](=O)[O-])cc1)N1CCC(C(O)(c2ccc3c(c2)OCO3)c2ccc3c(c2)OCO3)CC1 [JZL184] (first compound 1 µM, partner dose 1 µM)	98	102	60.4	73.6	76.3	71.7	61.3	76.2	121
COC(=O)c1sccc1S(=O)(=O)Nc1ccc(Nc2ccccc2)cc1OC + Cc1cc(SCc2sc(-c3ccc(C(F)(F)F)c(F)c3)nc2C)ccc1OCC(=O)O [GW0742] (first compound 1 µM, partner dose 2 µM)	159	55.2	89.6	38	69.1	49.9	129	46	80.2
COc1ccc(-c2ccc3c(N4CCOCC4)nc(N4C[C@@H](C)O[C@@H](C)C4)nc3n2)cc1CO + O=C(Oc1ccc([N+](=O)[O-])cc1)N1CCC(C(O)(c2ccc3c(c2)OCO3)c2ccc3c(c2)OCO3)CC1 [JZL184] (first compound 0.02 µM, partner dose 1 µM)	119	33.8	107	101	135	64.4	36.3	127	82.1
COc1ccc(-c2ccc3c(N4CCOCC4)nc(N4C[C@@H](C)O[C@@H](C)C4)nc3n2)cc1CO + Cc1cc(SCc2sc(-c3ccc(C(F)(F)F)c(F)c3)nc2C)ccc1OCC(=O)O [GW0742] (first compound 0.02 µM, partner dose 2 µM)	41.1	164	88	44.1	56.7	44.2	82.9	119	104
O=C(Oc1ccc([N+](=O)[O-])cc1)N1CCC(C(O)(c2ccc3c(c2)OCO3)c2ccc3c(c2)OCO3)CC1 + Cn1cc(/C=C2\C(=O)Nc3cccnc32)c2ccccc21 [GW441756] (first compound 1 µM, partner dose 0.4 µM)	99	105	36.4	71.4	112	58.7	74.8	109	38
C[As](C)SC[C@H](NC(=O)CC[C@H](N)C(=O)O)C(=O)NCC(=O)O [Darinaparsin] + CCN(CC)CCCCNc1ncc2cc(-c3cc(OC)cc(OC)c3)c(NC(=O)NC(C)(C)C)nc2n1 [PD173074] (first compound 0.4 µM, partner dose 0.1 µM)	64	50.6	56.1	95.2	126	24	64.1	151	25.6
C[As](C)SC[C@H](NC(=O)CC[C@H](N)C(=O)O)C(=O)NCC(=O)O [Darinaparsin] + O=C(Nc1ccccc1)c1cc([N+](=O)[O-])ccc1Cl [GW9662] (first compound 0.4 µM, partner dose 2 µM)	58.2	29.6	102	228	121	16.8	65.4	103	36.3
COc1cc2c(Oc3ccc4[nH]c(C)cc4c3F)ncnc2cc1OCCCN1CCCC1 [cediranib] + O=C(Oc1ccc([N+](=O)[O-])cc1)N1CCC(C(O)(c2ccc3c(c2)OCO3)c2ccc3c(c2)OCO3)CC1 [JZL184] (first compound 0.4 µM, partner dose 1 µM)	118	47	79	169	74.7	20.1	27.8	64.8	82.9
C#Cc1cccc(Nc2ncnc3cc(OCCOC)c(OCCOC)cc23)c1 [erlotinib] + C/C(O)=C(\C#N)C(=O)Nc1cc(Br)ccc1Br [LFM-A13] (first compound 0.8 µM, partner dose 2 µM)	108	505	94.4	77.2	144	46.6	108	213	195
C[C@]12O[C@H](C[C@]1(O)CO)n1c3ccccc3c3c4c(c5c6ccccc6n2c5c31)CNC4=O [Lestaurtinib] + CN(C)S(=O)(=O)c1ccc2c(c1)/C(=C/c1cc3c([nH]1)CCCC3)C(=O)N2 [SU6656] (first compound 0.004 µM, partner dose 0.4 µM)	142	131	45.7	24.5	29.9	151	130	147	185
Cc1cc(N2CCOCC2)cc2[nH]c(-c3c(NC[C@@H](O)c4cccc(Cl)c4)cc[nH]c3=O)nc12 + C/C(O)=C(\C#N)C(=O)Nc1cc(Br)ccc1Br [LFM-A13] (first compound 0.2 µM, partner dose 2 µM)	117	351	43.4	46.8	257	815	60.8	73.2	94.7
Cc1cc(SCc2sc(-c3ccc(C(F)(F)F)c(F)c3)nc2C)ccc1OCC(=O)O + O=C(Oc1ccc([N+](=O)[O-])cc1)N1CCC(C(O)(c2ccc3c(c2)OCO3)c2ccc3c(c2)OCO3)CC1 [JZL184] (first compound 2 µM, partner dose 1 µM)	58.1	40.4	83.5	115	68.3	88.5	98	26.4	127
N#Cc1c(O)c2c(-c3ccc(-c4ccccc4O)cc3)csc2[nH]c1=O + C/C(O)=C(\C#N)C(=O)Nc1cc(Br)ccc1Br [LFM-A13] (first compound 2 µM, partner dose 2 µM)	63.2	27.3	84.8	81.3	102	30.6	66.4	69.4	153
C[As](C)SC[C@H](NC(=O)CC[C@H](N)C(=O)O)C(=O)NCC(=O)O [Darinaparsin] + O=C(O)C(=O)Nc1sc2c(c1C(=O)O)CCNC2 [TCS401] (first compound 0.4 µM, partner dose 1.66667 µM)	202	53.6	128	97.6	99.8	73.8	35.2	68.4	50.5
C[C@]12O[C@H](C[C@]1(O)CO)n1c3ccccc3c3c4c(c5c6ccccc6n2c5c31)CNC4=O [Lestaurtinib] + CCc1ccc(CCOc2ccc(CC3SC(=O)NC3=O)cc2)nc1 [pioglitazone] (first compound 0.004 µM, partner dose 2 µM)	112	43.6	74.8	58.6	98.1	57.9	60.3	125	183
CCc1ccc(CCOc2ccc(CC3SC(=O)NC3=O)cc2)nc1 (stereo not drawn) [pioglitazone] + C/C(O)=C(\C#N)C(=O)Nc1cc(Br)ccc1Br [LFM-A13] (first compound 2 µM, partner dose 2 µM)	70	67.6	89.6	121	341	39.8	59	165	43.6
Cn1cncc1[C@@](N)(c1ccc(Cl)cc1)c1ccc2c(c1)c(-c1cccc(Cl)c1)cc(=O)n2C [tipifarnib] + O=C(Oc1ccc([N+](=O)[O-])cc1)N1CCC(C(O)(c2ccc3c(c2)OCO3)c2ccc3c(c2)OCO3)CC1 [JZL184] (first compound 0.01 µM, partner dose 1 µM)	183	36.3	90.1	53.4	71.3	78.7	220	20.8	34.8

Pulled one by one from above, two records:
SMILES	cleaved PARP positive nuclei fraction (MZ2-MEL) [%]	cleaved PARP positive nuclei fraction (MeWo) [%]	cleaved PARP positive nuclei fraction (RPMI7951) [%]	cleaved PARP positive nuclei fraction (RVH-421) [%]	cleaved PARP positive nuclei fraction (SkMel28) [%]	cleaved PARP positive nuclei fraction (SkMel30) [%]	cleaved PARP positive nuclei fraction (SkMel5) [%]	cleaved PARP positive nuclei fraction (UACC257) [%]	cleaved PARP positive nuclei fraction (UACC62) [%]
O=C(Oc1ccc([N+](=O)[O-])cc1)N1CCC(C(O)(c2ccc3c(c2)OCO3)c2ccc3c(c2)OCO3)CC1 + Cn1cc(/C=C2\C(=O)Nc3cccnc32)c2ccccc21 [GW441756] (first compound 1 µM, partner dose 0.4 µM)	99	105	36.4	71.4	112	58.7	74.8	109	38
COc1ccc(-c2ccc3c(N4CCOCC4)nc(N4C[C@@H](C)O[C@@H](C)C4)nc3n2)cc1CO + Cc1cc(SCc2sc(-c3ccc(C(F)(F)F)c(F)c3)nc2C)ccc1OCC(=O)O [GW0742] (first compound 0.02 µM, partner dose 2 µM)	41.1	164	88	44.1	56.7	44.2	82.9	119	104
